Results published in publication PMC4460183, “Catalytic and hydrodynamic properties of styrene monooxygenases from Rhodococcus opacus 1CP are modulated by cofactor binding” (AMB Express, 2015).
No constants are given. Whether binding was seen depends on the method and setting.

Molecular target: StyA styrene monooxygenase from Rhodococcus opacus 1CP (styABCD cluster) (Rhodococcus opacus 1CP)
Assay: condition: only with 12.7 µM FAD and 1 mM sodium dithionite (reduced FAD); SEC; analytical gel filtration, Superdex 200 HR 10/30, 22°C, 10 mM Tris-HCl pH 7.2, 500 mM NaCl; reduced holoenzyme, 12.7 µM FAD and 1 mM sodium dithionite, anaerobic buffer; both purified

binding: no binding
B1: StyA styrene monooxygenase from Rhodococcus opacus 1CP (styABCD cluster) (enzyme, UniProt A0A076JVU4 1-426, looked up)
chain: MSKRIAIVGAGTAGLHLGLYLNEKGIDATIFTDRRPEEYANIRLLNTVAHHSVTIDREDALGIDHWPNDGYFGHYYYVGIPGMPIRSYGDLAKPSRAVDYRILQPQLMRDFEERGGKIEYRPIRVEDLTVLSDDYDLVVIGTGKGGLGTLFARDEQSSPFTEPQRQLCVGIFKGIAPAETRAVTFCISPGAGEMIEIPTVTFSGDATALVFENHIGSDLEVLAHTRYEDDPRAFLDLMIEKLKQHYPITAERLDEKEFDVANSHLDILQGGVTPTVRHGHVKLDNGKLAVLLGDAHATVDPVLGQGGNMASYAAHVLGEEIAGNEVYDELFCERVDARRAGRVLGATRWTNFMLSNLKELPNHFVEFLGRVMMDRQLADRFTDNFNYPEKQWDIFSSPENMVAWIEANETGAEETERPFAQTGAQS
notes: StyA of the styABCD cluster, Rhodococcus opacus 1CP, 427 amino acid residues, calculated mass 46,580 Da; amplified from genomic DNA with printed primers that hold the start codon (NdeI CATATG) and the stop codon (TCA in the reverse primer); Apparent subunit mass 50 kDa including the His-tag (SDS-PAGE); also called holo-StyA; source: E. coli BL21, purified (HisTrap FF IMAC)
